This is an account of results in publication PMC7819943, “Rice protein-binding microarrays: a tool to detect cis-acting elements near promoter regions in rice”.

Sequences of proteins named here, by UniProt entry; tags and fusion partners are left off.
UniProt Q0JBA9, entry or part of it: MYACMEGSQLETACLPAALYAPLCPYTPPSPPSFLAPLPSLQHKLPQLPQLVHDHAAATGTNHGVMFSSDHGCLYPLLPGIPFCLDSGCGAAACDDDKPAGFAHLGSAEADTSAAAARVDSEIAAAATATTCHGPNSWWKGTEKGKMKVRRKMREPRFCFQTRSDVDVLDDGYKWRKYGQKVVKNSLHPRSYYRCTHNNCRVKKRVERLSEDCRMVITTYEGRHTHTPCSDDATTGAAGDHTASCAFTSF

Some of the results follow.

The experiment concerns the target OsWRKY34 (Oryza sativa, UniProt Q0JBA9 1-250). Briefly: protein-binding microarray (RPBM); PBS, 2% BSA, 51.3 ng/ul salmon testes DNA, 50 uM zinc acetate, 200 nM TF, 25 C, 1 h; high values mean tight binding. Particulars: protein: recombinant; tags: N-terminal polyhistidine and DsRed monomer fusion (pET32a); label: CyDye5-dUTP incorporated in the synthesized complementary strand; 3' TTTTT single-stranded linker to array surface; dsDNA, one strand shown. Summed up:
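An Axon 4000B scanner gave the binding signal as per-feature fluorescence intensity in arbitrary units. This followed washing of a custom Agilent array that had been incubated for 1 h at 25 °C with 200 nM protein in PBS, 2% BSA, salmon testes DNA and 50 µM zinc acetate. The proteins were transcription factors fused at the N-terminus to polyhistidine and DsRed, expressed in E. coli BL21-CodonPlus and purified on Ni–NTA.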
Regarding “CAGTCCATTTTTACAAAGTTGCGGGTTGGTTCCTGAACTACGGAGTCACCTAGTGCAG”, the binding signal was 8680 fluorescence intensity (a.u.).
“GATTCTCCAGTTGATTTATGCTCTCTTTCACTGACCAAACCGGAGTCACCTAGTGCAG”: the binding signal was 8080 fluorescence intensity (a.u.).
For “ACTGGCTTTGCTATGATCTTTTGCTATCGCCCAACCGTTACGGAGTCACCTAGTGCAG”, the binding signal is 8690 fluorescence intensity (a.u.).
For the sequence “TCGTGTCCTCTCTTCAGCCACACACGCGCCCACCTCGCCGCGGAGTCACCTAGTGCAG”, the binding signal is 8500 fluorescence intensity (a.u.).
Turning to “TCATCACCCACCGGGCTTTCCTGACACGGCCCATTTACTACGGAGTCACCTAGTGCAG”, the binding signal is 9970 fluorescence intensity (a.u.).
Regarding “TGCGATTACGGCGGCTACCCTTCTTGTTCTTCATGGATGACGGAGTCACCTAGTGCAG”, the binding signal is 8590 fluorescence intensity (a.u.).
“TGTTTTATGCATGCTGCGTTATCTGCTCTTATTCAAACTCCGGAGTCACCTAGTGCAG”: the binding signal is 8650 fluorescence intensity (a.u.).
Regarding “GTTTAATGGGTTGATGTGGCATGCTTACATATAGGTTTTACGGAGTCACCTAGTGCAG”, the binding signal is 10300 fluorescence intensity (a.u.).
Consider “GGTAGGGTTTGCGTGCGTGTGTTCATAGGGTGAGTGCGCGCGGAGTCACCTAGTGCAG”, for which the binding signal was 8680 fluorescence intensity (a.u.).
In the case of “ATCCCAATTTATGTGTGACCATTACAATGTGTTTGACAATCGGAGTCACCTAGTGCAG”, the binding signal was 8360 fluorescence intensity (a.u.).
In the case of “GCCGGTCCATTCTCCGCCCTTCACCGCCTCCGTTGCCGGCCGGAGTCACCTAGTGCAG”, the binding signal is 9320 fluorescence intensity (a.u.).
Consider “ACTATTTCTCACTGGAATGTTATATACTTCTGGAATATTCCGGAGTCACCTAGTGCAG”, for which the binding signal is 8680 fluorescence intensity (a.u.).
In the case of “AGACACAGCACACCCACTCACTCTGCTCACTCTCCCATACCGGAGTCACCTAGTGCAG”, the binding signal is 10200 fluorescence intensity (a.u.).
The figure for “TCCGTTTTTTAATAGATGACGCCGTTGACTTTTTCTCACACGGAGTCACCTAGTGCAG” is 31700 fluorescence intensity (a.u.); for “CTAGCATGGTGTTCCCCTCCATCTTTTATTCATTATCTGCCGGAGTCACCTAGTGCAG” it is 8520 fluorescence intensity (a.u.); for “ACTCCAAGACACAGTGTGTATGACAGGTGGGACCAGATATCGGAGTCACCTAGTGCAG” it is 8210 fluorescence intensity (a.u.).
As to “TGGAGGAGGGGAGGCCGGGGATTGTTTTTATAGGGGAGGGCGGAGTCACCTAGTGCAG”, the binding signal was 30500 fluorescence intensity (a.u.).
As for “ACACCACACCACACGTCCACACCACACCACGACTCGACGGCGGAGTCACCTAGTGCAG”, the figure is 8780 fluorescence intensity (a.u.); as for “CCTGAGCCGGCCCAGCCACCAGATGGTCTTCTTCTTCCTTCGGAGTCACCTAGTGCAG”, 9020 fluorescence intensity (a.u.); as for “ATACGCGCCCATCCCTGCGTCCTTGCACTTGCGCACCCACCGGAGTCACCTAGTGCAG”, 9850 fluorescence intensity (a.u.).
Take “GACTATGCAATTGTTTTTAATTTTGGTTGTGCTTATGTTGCGGAGTCACCTAGTGCAG”: the binding signal is 10900 fluorescence intensity (a.u.).
Consider “AATTTGTTTGAACCTGTGCCGGACTACTCCTACGAGGCATCGGAGTCACCTAGTGCAG”, for which the binding signal is 9600 fluorescence intensity (a.u.).
As to “GCGCCTTTCAATTTGCAATTATTTCTCTTGCCTATGTTTTCGGAGTCACCTAGTGCAG”, the binding signal was 13200 fluorescence intensity (a.u.).
As to “GCTGGTTTGATTAGATCTTCATCCCACGTGGCATTGACGTCGGAGTCACCTAGTGCAG”, the binding signal was 9470 fluorescence intensity (a.u.).
In the case of “GCGCCATCTCCATCTCCACCTCCACATCCCTACTAGTATACGGAGTCACCTAGTGCAG”, the binding signal is 9760 fluorescence intensity (a.u.).
For “TTTGTCTCGTGAATTAGCTTTTATTTATGTAATTAGTTTTCGGAGTCACCTAGTGCAG”, the binding signal is 8400 ± 235 fluorescence intensity (a.u.).
As for “TCCATTTGTCATCCCTCATCTTTCTGTCCATTATGTTTAACGGAGTCACCTAGTGCAG”, the figure is 8980 fluorescence intensity (a.u.); as for “TTGGTCGTGTGTATAATATTTTCCTTTTGAAATTTACTCTCGGAGTCACCTAGTGCAG”, 11500 fluorescence intensity (a.u.); as for “CTGGCTACAGATCTGTAGTCCACTGCTCTTCTCTTTCTTCCGGAGTCACCTAGTGCAG”, 10000 fluorescence intensity (a.u.).
Turning to “TTCCTTTTCTCCGCGCGCTTTCCGCTGGCCTTCGCTACTCCGGAGTCACCTAGTGCAG”, the binding signal was 8350 fluorescence intensity (a.u.).
As for “AGTTTTTGTTTGTAATATATGATCATTCGTTTTATTAAAACGGAGTCACCTAGTGCAG”, the figure is 9280 fluorescence intensity (a.u.).
Consider “CTTGCCGCGCGCGCCCGCCCGCCCGCCCGCGCCCACCGGCCGGAGTCACCTAGTGCAG”, for which the binding signal is 8520 fluorescence intensity (a.u.).
“ATCATCCCCGTATTCCCGTGTGCCAGTCGACCAAACGCGTCGGAGTCACCTAGTGCAG”: the binding signal was 11200 fluorescence intensity (a.u.).
Take “ACAATCATTTGCCACCCAATTCTTTTTATTGCCAAAACTCCGGAGTCACCTAGTGCAG”: the binding signal is 8210 fluorescence intensity (a.u.).
“CATTCACAACTTCACAAGCATTCTTTCCTAATTTTCTTTCCGGAGTCACCTAGTGCAG”: the binding signal is 12300 fluorescence intensity (a.u.).
As to “CTCACCGCAATTCTGTCCCCAATCCAGTGTCATTTGACTCCGGAGTCACCTAGTGCAG”, the binding signal is 10700 fluorescence intensity (a.u.).
Turning to “CGGGGCGTGAGGGGTTATGAGTATATTTGTATTTTTTTTTCGGAGTCACCTAGTGCAG”, the binding signal was 18400 fluorescence intensity (a.u.).
In the case of “AGCTCGATCTCCGCACAGTCCCGGGCCACGCCCACACCACCGGAGTCACCTAGTGCAG”, the binding signal is 11800 fluorescence intensity (a.u.).
As for “CCTCACACACCACAACATCCATCTTCACCCGGAATTAATCCGGAGTCACCTAGTGCAG”, the figure is 9060 fluorescence intensity (a.u.); as for “CATAACTTATCCCCACGCAACGCCCACCTACCACACTCCCCGGAGTCACCTAGTGCAG”, 8590 fluorescence intensity (a.u.).
In the case of “TTCTTCCTTTTGTTGAGAATTTTGCCTTCCATCTGCTTAACGGAGTCACCTAGTGCAG”, the binding signal is 8870 fluorescence intensity (a.u.).
In the case of “ATATCTATAACTTTTATTTTGGTCATATCTTTTATTTGGCCGGAGTCACCTAGTGCAG”, the binding signal was 9730 fluorescence intensity (a.u.).
